Data as given in PubChem BioAssay AID1224828 (NIAID, 2016).
The deposit covers about 17,000 reagents; below is a random part of them. 762 of them (4.5%) were called active. 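Active calls include both raised and lowered p65 entry, mostly lowered; wells with fewer than 50 cells lack a z-score.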 Raw values vary from plate to plate and are shown uncorrected. A number with no mark means an inactive call.

- Test: 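Regulators linking TLR4 signalling to p65 nuclear translocation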 (primary screen)
- Cells: mouse RAW264.7 G9 macrophage reporter cells (GFP-p65, Tnf promoter-mCherry)
- Reagent: siRNA pool against mouse genes, 100 nM
- Timing: 2 days siRNA transfection, then 40 min LPS before fixation
- Conditions: LPS (Salmonella minnesota R595) at 10 ng/ml
- Detection: 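Imaged p65 nuclear translocation ratio, normalised to the plate median, converted to robust z-scores and averaged across two replicates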
- Direction: p65 translocation robust z-score: higher = more nuclear NF-kappaB p65 after LPS than the plate median; nuclear/cytoplasmic p65 ratio: higher = more nuclear NF-kappaB p65
- Call rule: 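Called active when z exceeds 3.3 or falls under -1.56 (median of Tlr4 controls), giving activity score of at least 50; no calls for control wells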
- Meaning of the calls: active = hit (p65 shift raised or lowered); inactive = no clear change

Eaf1 (ELL associated factor 1) gave nuclear/cytoplasmic p65 ratio, rep 1 = 1.26; nuclear/cytoplasmic p65 ratio, rep 2 = 1.22; low cell count flag fewer than 50 cells per well; well left out of scoring.
Against Ifit1 (interferon-induced protein with tetratricopeptide repeats 1), the entry reads p65 translocation robust z-score 0.4; nuclear/cytoplasmic p65 ratio, rep 1 = 1.48; nuclear/cytoplasmic p65 ratio, rep 2 = 1.43; low cell count flag enough cells to score.
Cxcr1 (C-X-C motif chemokine receptor 1) gave p65 translocation robust z-score 1.2; nuclear/cytoplasmic p65 ratio, rep 1 = 1.63; nuclear/cytoplasmic p65 ratio, rep 2 = 1.8; low cell count flag enough cells to score.
For Rasl10a (RAS-like, family 10, member A) the deposit lists p65 translocation robust z-score -0.23; nuclear/cytoplasmic p65 ratio, rep 1 = 1.57; nuclear/cytoplasmic p65 ratio, rep 2 = 1.59; low cell count flag enough cells to score.
For Rbm17 (RNA binding motif protein 17) the deposit lists p65 translocation robust z-score 1.53; nuclear/cytoplasmic p65 ratio, rep 1 = 1.65; nuclear/cytoplasmic p65 ratio, rep 2 = 1.36; low cell count flag enough cells to score.
For Nsmce3 (NSE3 homolog, SMC5-SMC6 complex component), the entry reads p65 translocation robust z-score 0.17; nuclear/cytoplasmic p65 ratio, rep 1 = 1.83; nuclear/cytoplasmic p65 ratio, rep 2 = 1.6; low cell count flag enough cells to score.
Ybx2 (Y box protein 2) gave p65 translocation robust z-score -0.78; nuclear/cytoplasmic p65 ratio, rep 1 = 1.23; nuclear/cytoplasmic p65 ratio, rep 2 = 1.23; low cell count flag enough cells to score.
Depletion of Ugt1a1 (UDP glucuronosyltransferase 1 family, polypeptide A1) resulted in: nuclear/cytoplasmic p65 ratio, rep 1 = 1.22; nuclear/cytoplasmic p65 ratio, rep 2 = 1.08; low cell count flag fewer than 50 cells per well; well left out of scoring.
After knock-down of Trappc12 (trafficking protein particle complex 12) the results were p65 translocation robust z-score 0.06; nuclear/cytoplasmic p65 ratio, rep 1 = 1.66; nuclear/cytoplasmic p65 ratio, rep 2 = 1.47; low cell count flag enough cells to score.
Lin7b (lin-7 homolog B, crumbs cell polarity complex component) gave p65 translocation robust z-score 0.14; nuclear/cytoplasmic p65 ratio, rep 1 = 1.72; nuclear/cytoplasmic p65 ratio, rep 2 = 1.58; low cell count flag enough cells to score.
For A930002I21Rik (RIKEN cDNA A930002I21 gene), the entry reads p65 translocation robust z-score 0.98; nuclear/cytoplasmic p65 ratio, rep 1 = 1.49; nuclear/cytoplasmic p65 ratio, rep 2 = 1.68; low cell count flag enough cells to score.
Against Iqgap1 (IQ motif containing GTPase activating protein 1), the values are p65 translocation robust z-score 1.31; nuclear/cytoplasmic p65 ratio, rep 1 = 1.61; nuclear/cytoplasmic p65 ratio, rep 2 = 1.59; low cell count flag enough cells to score.
Silencing of Itgb7 (integrin beta 7) gave: p65 translocation robust z-score 0.73; nuclear/cytoplasmic p65 ratio, rep 1 = 1.62; nuclear/cytoplasmic p65 ratio, rep 2 = 1.43; low cell count flag enough cells to score.
Tpd52l2 (tumor protein D52-like 2) gave p65 translocation robust z-score -0.75; nuclear/cytoplasmic p65 ratio, rep 1 = 1.44; nuclear/cytoplasmic p65 ratio, rep 2 = 1.39; low cell count flag enough cells to score.
Iars2 (isoleucine-tRNA synthetase 2, mitochondrial) showed nuclear/cytoplasmic p65 ratio, rep 1 = 1.38; nuclear/cytoplasmic p65 ratio, rep 2 = 1.36; low cell count flag fewer than 50 cells per well; well left out of scoring.
With knock-down of Rbbp4, the record shows p65 translocation robust z-score 0.2; nuclear/cytoplasmic p65 ratio, rep 1 = 1.55; nuclear/cytoplasmic p65 ratio, rep 2 = 1.54; low cell count flag enough cells to score.
Against Simc1 (SUMO-interacting motifs containing 1), the values are nuclear/cytoplasmic p65 ratio, rep 1 = 1.29; nuclear/cytoplasmic p65 ratio, rep 2 = 1.1; low cell count flag fewer than 50 cells per well; well left out of scoring.
For Cks2 (CDC28 protein kinase regulatory subunit 2), the entry reads p65 translocation robust z-score 0.41; nuclear/cytoplasmic p65 ratio, rep 1 = 1.92; nuclear/cytoplasmic p65 ratio, rep 2 = 1.3; low cell count flag enough cells to score.
With knock-down of Vmn1r19 (vomeronasal 1 receptor 19), the record shows p65 translocation robust z-score 1.67; nuclear/cytoplasmic p65 ratio, rep 1 = 1.61; nuclear/cytoplasmic p65 ratio, rep 2 = 1.41; low cell count flag enough cells to score.
After knock-down of Prph2 (peripherin 2) the results were p65 translocation robust z-score 0.4; nuclear/cytoplasmic p65 ratio, rep 1 = 1.61; nuclear/cytoplasmic p65 ratio, rep 2 = 1.61; low cell count flag enough cells to score.
Qprt (quinolinate phosphoribosyltransferase) gave p65 translocation robust z-score 0.62; nuclear/cytoplasmic p65 ratio, rep 1 = 1.59; nuclear/cytoplasmic p65 ratio, rep 2 = 1.29; low cell count flag enough cells to score.
